Measured values taken from article doi:10.1101/2023.07.17.549407 (bioRxiv, 2023).
These are yes or no findings as the source states them, for the method shown. For part of these data: Binding seen in cells or lysates may run through a third protein. Some binding calls cover weakened binding; strength is not graded here. For part of these data: Sequences can lack the tags named with a protein. Each block holds one molecule with its values, some of them ahead of it.

Sequences of proteins named here, by UniProt entry; tags and fusion partners are left off.
UniProt Q8NFB2: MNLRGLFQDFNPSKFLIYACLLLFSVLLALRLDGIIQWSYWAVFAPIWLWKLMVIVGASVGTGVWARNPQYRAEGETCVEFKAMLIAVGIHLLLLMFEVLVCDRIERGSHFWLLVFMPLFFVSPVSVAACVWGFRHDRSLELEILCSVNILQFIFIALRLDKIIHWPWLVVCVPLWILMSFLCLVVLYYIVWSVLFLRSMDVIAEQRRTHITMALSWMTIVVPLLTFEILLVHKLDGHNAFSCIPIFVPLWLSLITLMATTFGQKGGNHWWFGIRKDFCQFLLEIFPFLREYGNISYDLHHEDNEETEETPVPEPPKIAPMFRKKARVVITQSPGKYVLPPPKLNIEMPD
UniProt Q9H7F4: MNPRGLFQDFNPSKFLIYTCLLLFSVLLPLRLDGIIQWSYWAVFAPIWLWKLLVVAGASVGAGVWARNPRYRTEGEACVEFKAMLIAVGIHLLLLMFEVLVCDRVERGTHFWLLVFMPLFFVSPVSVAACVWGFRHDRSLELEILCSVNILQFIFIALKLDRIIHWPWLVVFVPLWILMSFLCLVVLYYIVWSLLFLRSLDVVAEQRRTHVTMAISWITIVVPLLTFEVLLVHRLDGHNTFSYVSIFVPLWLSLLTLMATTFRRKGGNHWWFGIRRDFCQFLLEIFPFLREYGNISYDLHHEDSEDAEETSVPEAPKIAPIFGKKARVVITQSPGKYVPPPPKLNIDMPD
UniProt Q9UNE7: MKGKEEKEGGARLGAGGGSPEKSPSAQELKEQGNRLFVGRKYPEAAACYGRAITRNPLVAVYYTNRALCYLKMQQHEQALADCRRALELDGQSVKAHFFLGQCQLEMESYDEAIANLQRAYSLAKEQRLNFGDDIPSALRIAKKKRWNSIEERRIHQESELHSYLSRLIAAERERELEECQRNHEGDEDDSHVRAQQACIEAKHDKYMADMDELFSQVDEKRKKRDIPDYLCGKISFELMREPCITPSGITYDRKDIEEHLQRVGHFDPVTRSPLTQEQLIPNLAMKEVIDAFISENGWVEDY

Experiments:
[1] = biological target: TMEM185A (UniProt Q8NFB2); test: co-IP
[2] = biological target: TMEM185B (UniProt Q9H7F4); test: co-IP
[3] = biological target: T1, labeled CHIC2 peptide (FAM-Ahx-IFRPD) (human); test: fluorescence polarisation
T1 sequence (peptide, N-terminal hexanoic acid linker (Ahx) and FAM fluorophore): IFRPD

[4] = biological target: T2, CHIC2 chimera with the Hsp70 C-terminus (CHIC2-IEEVD) (human) (UniProt Q9UKJ5); test: co-IP
T2 sequence: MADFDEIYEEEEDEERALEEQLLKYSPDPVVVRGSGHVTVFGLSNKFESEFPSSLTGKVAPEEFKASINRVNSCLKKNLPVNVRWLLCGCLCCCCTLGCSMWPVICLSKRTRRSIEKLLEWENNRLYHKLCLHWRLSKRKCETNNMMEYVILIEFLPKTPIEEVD

[5] = biological target: T3, CHIC2 chimera with the IWWPD C-terminus (CHIC2-IWWPD) (human) (UniProt Q9UKJ5); test: co-IP
T3 sequence: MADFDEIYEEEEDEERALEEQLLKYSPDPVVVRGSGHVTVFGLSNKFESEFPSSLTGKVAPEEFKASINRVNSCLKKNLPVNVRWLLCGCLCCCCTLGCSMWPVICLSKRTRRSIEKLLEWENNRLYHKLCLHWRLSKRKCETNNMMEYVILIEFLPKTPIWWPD

[6] = biological target: T4, myc-CHIC1 (UniProt Q5VXU3); test: co-IP
T4 sequence: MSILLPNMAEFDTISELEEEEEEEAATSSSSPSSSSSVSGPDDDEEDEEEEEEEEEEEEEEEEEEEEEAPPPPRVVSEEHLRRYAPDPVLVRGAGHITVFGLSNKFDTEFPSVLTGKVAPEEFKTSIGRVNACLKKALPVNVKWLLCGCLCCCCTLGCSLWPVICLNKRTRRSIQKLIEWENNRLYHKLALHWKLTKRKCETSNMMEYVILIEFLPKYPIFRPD

[7] = biological target: T5, myc-tagged CHIC2 D165A (human) (UniProt Q9UKJ5); test: co-IP
T5 sequence: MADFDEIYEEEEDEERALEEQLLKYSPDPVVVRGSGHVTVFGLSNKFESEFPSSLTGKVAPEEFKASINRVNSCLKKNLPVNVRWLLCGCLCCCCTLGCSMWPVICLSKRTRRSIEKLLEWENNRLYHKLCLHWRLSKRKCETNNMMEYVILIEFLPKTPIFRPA

[8] = biological target: myc-tagged CHIC2 (human) (UniProt Q9UKJ5); test: co-IP
[9] = biological target: T6, CHIC2 chimera with the CHIPOpt C-terminus (CHIC2-LWWPD) (human) (UniProt Q9UKJ5); test: co-IP
T6 sequence: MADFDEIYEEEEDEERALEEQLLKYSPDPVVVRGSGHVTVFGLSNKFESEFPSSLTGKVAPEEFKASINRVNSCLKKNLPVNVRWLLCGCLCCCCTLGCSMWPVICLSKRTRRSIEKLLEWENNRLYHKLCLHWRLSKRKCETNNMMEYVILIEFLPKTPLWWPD

[10] = biological target: T7, Hsp90 photo-crosslinking probe (diazirine-Lys(biotin)-MEEVD); test: cross-linking
T7 sequence (peptide, alkyl diazirine on the N-terminus; biotin on the side chain of the spacer lysine): KMEEVD

[11] = biological target: T8, Hsp70 photo-crosslinking probe (diazirine-Lys(biotin)-IEEVD); test: cross-linking
T8 sequence (peptide, alkyl diazirine on the N-terminus; biotin on the side chain of the spacer lysine): KIEEVD

[12] = biological target: endogenous CHIP (HEK293T) (human (endogenous in HEK293T)) (UniProt Q9UNE7); test: cross-linking

Molecule: HOP, recombinant (from UniProt P31948 1-543)
binding [3]: no binding

Molecule: endogenous HOP (HEK293T) (from UniProt P31948 1-543)
binding [4]: no binding

Molecule: endogenous CHIP (HEK293T) (from UniProt Q9UNE7 1-303) (enzyme)
binding [5]: binds
binding [6]: binds
binding [7]: no binding
binding [4]: binds
binding [8]: binds
binding [1]: binds
binding [9]: binds
binding [10]: binds
binding [11]: binds

Molecule: LWWPD (N-terminal acetyl) [CHIPOpt (Ac-LWWPD)]
binding [12]: binds

More lines, now with the values ahead:

binding [1]: no binding
binding [2]: no binding
Molecule: myc-tagged CHIC2 (from UniProt Q9UKJ5 1-165)

binding [12]: binds
Molecule: IFRPD (N-terminal acetyl) [CHIC2 C-terminal 5-mer peptide Ac-IFRPD]
